No constants are given. Whether binding was seen depends on the method and setting. Binding seen in cells or lysates may run through a third protein. A yes stands for co-enrichment or nearness to the bait. Other partners may have been found. Tags and fused reporters may be left off the sequences shown.
T1: MycHDA19 (Myc-tagged histone deacetylase 19) (Arabidopsis thaliana) (UniProt O22446)
T1 sequence: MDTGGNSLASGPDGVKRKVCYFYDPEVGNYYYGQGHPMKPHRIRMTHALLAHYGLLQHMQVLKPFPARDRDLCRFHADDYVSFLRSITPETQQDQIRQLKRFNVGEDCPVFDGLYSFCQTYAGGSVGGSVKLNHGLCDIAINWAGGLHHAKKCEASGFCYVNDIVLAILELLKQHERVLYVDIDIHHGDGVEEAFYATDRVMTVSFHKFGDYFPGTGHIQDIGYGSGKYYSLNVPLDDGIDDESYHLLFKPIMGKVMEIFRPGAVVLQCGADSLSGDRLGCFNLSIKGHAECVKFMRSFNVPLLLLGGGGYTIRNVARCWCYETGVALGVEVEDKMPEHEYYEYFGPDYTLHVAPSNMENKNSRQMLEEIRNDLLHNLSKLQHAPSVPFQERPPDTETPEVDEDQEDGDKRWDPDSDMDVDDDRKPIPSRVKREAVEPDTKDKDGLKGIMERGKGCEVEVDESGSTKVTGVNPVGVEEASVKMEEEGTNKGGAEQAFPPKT

B1: CCT7 (protein, UniProt Q9SF16 1-557)
chain: MASMMQPQIILLKEGTDTSQGKAQLVSNINACTAVGDVVRTTLGPRGMDKLIHDDKGSVTISNDGATIMKLLDIVHPAAKILVDIAKSQDSEVGDGTTTVVLLAAEFLKEAKPFIEDGVHAQNLIRSYRTASTLAIAKVKELAVSIEGKSVEEKKGLLAKCAATTLSSKLIGGEKEFFATMVVDAVMAIGNDDRLNLIGIKKVPGGNMRDSFLVDGVAFKKTFSYAGFEQQPKKFLNPKILLLNIELELKSEKENAEIRLSDPSQYQSIVDAEWNIIYDKLDKCVESGAKVVLSRLAIGDLATQYFADRDIFCAGRVAEEDLNRVAAAAGGTVQTSVNNIIDEVLGTCEIFEEKQVGGERFNIFSGCPSGRTATIVLRGGADQFIEEAERSLHDAIMIVRRAVKNSTVVPGGGAIDMEISKYLRQHSRTIAGKSQLFINSYAKALEVIPRQLCDNAGFDATDVLNKLRQKHAMQSGEGASYGVDINTGGIADSFANFVWEPAVVKINAINAATEAACLILSVDETVKNPKSESAQGDAAGAMGRGRGGGRGRGMRRR
B2: FdC1 (protein, UniProt O23344 57-154)
chain: VEHDGKTTELEVEPDETILSKALDSGLDVPYDCNLGVCMTCPAKLVTGTVDQSGGMLSDDVVERGYTLLCASYPTSDCHIKMIPEEELLSLQLATAND
B3: ICL (protein, UniProt P28297 1-576)
chain: MAASFSVPSMIMEEEGRFEAEVAEVQTWWSSERFKLTRRPYTARDVVALRGHLKQGYASNEMAKKLWRTLKSHQANGTASRTFGALDPVQVTMMAKHLDTIYVSGWQCSSTHTSTNEPGPDLADYPYDTVPNKVEHLFFAQQYHDRKQREARMSMSREERTKTPFVDYLKPIIADGDTGFGGTTATVKLCKLFVERGAAGVHIEDQSSVTKKCGHMAGKVLVAVSEHINRLVAARLQFDVMGTETVLVARTDAVAATLIQSNIDARDHQFILGATNPSLRGKSLSSLLAEGMTVGKNGPALQSIEDQWLGSAGLMTFSEAVVQAIKRMNLNENEKNQRLSEWLTHARYENCLSNEQGRVLAAKLGVTDLFWDWDLPRTREGFYRFQGSVAAAVVRGWAFAQIADIIWMETASPDLNECTQFAEGIKSKTPEVMLAYNLSPSFNWDASGMTDQQMVEFIPRIARLGYCWQFITLAGFHADALVVDTFAKDYARRGMLAYVERIQREERTHGVDTLAHQKWSGANYYDRYLKTVQGGISSTAAMGKGVTEEQFKESWTRPGADGMGEGTSLVVAKSRM
B4: CRU2 (protein, UniProt P15456 25-455)
chain: QWPNECQLDQLNALEPSQIIKSEGGRIEVWDHHAPQLRCSGFAFERFVIEPQGLFLPTFLNAGKLTFVVHGRGLMGRVIPGCAETFMESPVFGEGQGQGQSQGFRDMHQKVEHLRCGDTIATPSGVAQWFYNNGNEPLILVAAADLASNQNQLDRNLRPFLIAGNNPQGQEWLQGRKQQKQNNIFNGFAPEILAQAFKINVETAQQLQNQQDNRGNIVKVNGPFGVIRPPLRRGEGGQQPHEIANGLEETLCTMRCTENLDDPSDADVYKPSLGYISTLNSYNLPILRLLRLSALRGSIRKNAMVLPQWNVNANAALYVTNGKAHIQMVNDNGERVFDQEISSGQLLVVPQGFSVMKHAIGEQFEWIEFKTNENAQVNTLAGRTSVMRGLPLEVITNGYQISPEEAKRVKFSTIETTLTHSSPMSYGRPRA
B5: SIN3-like (SNL) protein 1 (protein, UniProt Q9SRH9 1-1372)
chain: MKRIRDDVYASGSQFRRPLGSSRGQLCGQSPVHGSGDTEEEEEGGSRRVSQKLTTNDALSYLREVKEMFQDQREKYDRFLEVMKDFKAQRTDTGGVIARVKELFKGHNNLIYGFNTFLPKGYEITLIEEDDALPKKTVEFEQAINFVNKIKMRFKHDEHVYKSFLEILNMYRKENKEIKEVYNEVSILFQGHLDLLEQFTRFLPASLPSHSAAQHSRSQAQQYSDRGSDPPLLHQMQVEKERRRERAVALRGDYSVERYDLNDDKTMVKIQREQRKRLDKENRARRGRDLDDREAGQDNLHHFPEKRKSSRRAEALEAYSGSASHSEKDNLKSMYKQAFVFCEKVKDRLCSQDDYQTFLKCLNIFSNGIIQRKDLQNLVSDLLGKFPDLMDEFNQFFERCESITDGFQRLAGVMSKKLFSSEEQLSRPMKVEEKESEHKPELEAVKETEQCKKEYMGKSIQELDLSDCECCTPSYRLLPADYPIPIASQRSELGAEVLNDHWVSVTSGSEDYSFKHMRRNQYEESLFRCEDDRFELDMLLESVSSAARSAESLLNIITEKKISFSGSFRIEDHFTALNLRCIERLYGDHGLDVIDILNKNPATALPVILTRLKQKQGEWKKCRDDFDKVWANVYAKNHYKSLDHRSFYFKQQDSKNLSAKSLLAEIKELKEKSQNDDDVLLSISAGYRQPINPNLEYEYLNRAIHEDMFKVVQFSCEELCSTKEQLSKVLRLWENFLEAVLGVPPRAKGTDLVEDVVINPKTLDVNHSTSPNGEAAVSSGGDTARLASRKLKSAANGDENSSSGTFKHGIGLLNKDSTGKENLEDVEIANRDGVACSAVKPQKEQETGNEAEKRFGKPIPMDISERAAISSISIPSGAENNHCVVGKEVLPGAHEIQAKPSDTLTDIHHDVDSIETVHSTQGGDVGNSIVLANGLRSDSSKGTRNSDDPEGPSRNEKEEGELSPNGDFEDNFGVYKDHGVKSTSKPENSAEAEVEADAEVENEDDADDVDSENASEASGTESGGDVCSQDEDREEENGEHDEIDGKAESEGEAEGMDPHLLEGESELLPQSERVLLSVRPLSKHVAAVLCDERTKDLQVFYGNDDFYVLFRLHQILYERILYAKRNCSGGELKSKNLKDTNAGDPYARFMRVLYGLLDGSAENTKFEDECRAIIGNQSYVLFTLDKLIYRLVKQLQAIVADEMDNKLLQLYEYEKSRKPGRVIDSVYYENVRVLVHEENIYRLECSSLPSRLSIQLMDNIIEKPEAYAVSMDPTFASYMQTELLSVSSGKKEEGHDIVLQRNLTGLYDLCKAMEGVEVVNGLECKMSCSSYKIAYVLDTEDYFHRKKKKKKTEQLWQRNKVRVERFHRFLSA
B6: SIN3-like (SNL) protein 2 (protein, UniProt Q9LFQ3 1-1367)
chain: MKRIRDDIYATGSQFKRPLGSSRGESYEQSPITGGGSIGEGGINTQKLTTDDALTYLKEVKEMFQDQRDKYDMFLEVMKDFKAQKTDTSGVISRVKELFKGHNNLIFGFNTFLPKGFEITLDDVEAPSKKTVEFEEAISFVNKIKTRFQHNELVYKSFLEILNMYRKDNKDITEVYNEVSTLFEDHSDLLEEFTRFLPDSLAPHTEAQLLRSQAQRYDDRGSGPPLVRRMFMEKDRRRERTVASRGDRDHSVDRSDLNDDKSMVKMHRDQRKRVDKDNRERRSRDLEDGEAEQDNLQHFSEKRKSSRRMEGFEAYSGPASHSEKNNLKSMYNQAFLFCEKVKERLCSQDDYQAFLKCLNMFSNGIIQRKDLQNLVSDVLGKFPDLMDEFNQFFERCESIDGFQHLAGVMSKKSLGSEENLSRSVKGEEKDREHKRDVEAAKEKERSKDKYMGKSIQELDLSDCERCTPSYRLLPPDYPIPSVRHRQKSGAAVLNDHWVSVTSGSEDYSFKHMRRNQYEESLFRCEDDRFELDMLLESVGSAAKSAEELLNIIIDKKISFEGSFRIEDHFTALNLRCIERLYGDHGLDVTDLIRKNPAAALPVILTRLKQKQDEWTKCREGFNVVWADVYAKNHYKSLDHRSFYFKQQDSKNLSAKALVSEVKDLKEKSQKEDDVVLSISAGYRQPIIPHLEYDYLDRAIHEDLFKLVQFSCEEICSTKEQTGKVLKLWANFLELMLDVAPRAKGSDSVEDVVETQHQRAFTSGEANESSDAISLVSRQLKFATNGDVHASSGVSKHGETGLLNRDSSGKENLKDGDLANKDVATCAEKPQKDQEIGNGAAKRSGDVDERVATSSSSFPSGVENNNGKVGSRDSSGSRGILSKPSEAIDKVDSIQHTQGVDIGRIIVLGNGLQSDTSKANSNYDESGGPSKIEKEEGELSPVGDSEDNFVVYEDRELKATAKTEHSVEAEGENDEDADDEDGDDASEAGEDASGTESIGDECSQDDNGVEEEGEHDEIDGKAESEGEAEGMESHLIEDKGLFPSSERVLLSVKPLSKHIAAAALVDEKKKDSRVFYGNDDFYVLFRLHRVSAIDSYDLLSHILYERILSAKTYCSGSEMKLRNTKDTCSPDPYARFMNALFSLLNGSAENSKFEDECRAIIGNQSYVLFTLEKLIYKLVKQLQAVVADDMDNKLLQLYEYENSRRPGRVFDSVYYENARILLHEENIYRLECSSSPSRLSIQLMDNIIEKPDAYAVSMEPTFTSYLQNEFLSNSSGKKELQDIVLQRNMRGYNGLDDLAVACKAMEGVQVINGLECKMSCSSYKISYVLDTEDFFHRKKKQKKSNNLSLAKLSQNRIARFHKFLSASR
B7: AT5G36790 (protein, UniProt P0DKC4 55-362)
chain: TSSNITPRAMATQQLENADQLIDSVETFIFDCDGVIWKGDKLIEGVPETLDMLRAKGKRLVFVTNNSTKSRKQYGKKFETLGLNVNEEEIFASSFAAAAYLQSINFPKDKKVYVIGEEGILKELELAGFQYLGGPDDGKRQIELKPGFLMEHDHDVGAVVVGFDRYFNYYKIQYGTLCIRENPGCLFIATNRDAVTHLTDAQEWAGGGSMVGALVGSTQREPLVVGKPSTFMMDYLADKFGIQKSQICMVGDRLDTDILFGQNGGCKTLLVLSGVTSISMLESPENKIQPDFYTSKISDFLSPKAATV
B8: LACS6 (protein, UniProt Q8LPS1 39-701)
chain: AGEFCLDNGYSVVLPEKLNTGSWNVYRSAKSPFKLVSRFPDHPDIATLHDNFEHAVHDFRDYKYLGTRVRVDGTVGDYKWMTYGEAGTARTALGSGLVHHGIPMGSSVGIYFINRPEWLIVDHACSSYSYVSVPLYDTLGPDAVKFIVNHATVQAIFCVAETLNSLLSCLSEMPSVRLVVVVGGLIESLPSLPSSSGVKVVSYSVLLNQGRSNPQRFFPPKPDDVATICYTSGTTGTPKGVVLTHANLIANVAGSSFSVKFFSSDVYISYLPLAHIYERANQILTVYFGVAVGFYQGDNMKLLDDLAALRPTVFSSVPRLYNRIYAGIINAVKTSGGLKERLFNAAYNAKKQALLNGKSASPIWDRLVFNKIKDRLGGRVRFMTSGASPLSPEVMEFLKVCFGGRVTEGYGMTETSCVISGMDEGDNLTGHVGSPNPACEVKLVDVPEMNYTSADQPHPRGEICVRGPIIFTGYYKDEIQTKEVIDEDGWLHTGDIGLWLPGGRLKIIDRKKNIFKLAQGEYIAPEKIENVYAKCKFVGQCFIYGDSFNSSLVAVVSVDPDVLKSWAASEGIKGGDLRELCNNPRVKAAVLSDMDTVGREAQLRGFEFAKAVTLVLEPFTLENGLLTPTFKIKRPQAKEYFAEAITNMYKELGASDPSANRGL

Each binder was assayed against T1, MycHDA19 (Myc-tagged histone deacetylase 19) (Arabidopsis thaliana) (assay: affinity purification with mass spectrometry).

binding	Binder
binds	B1
binds	B2
binds	B3
binds	B4
binds	B5
binds	B6
binds	B7
binds	B8

From doi:10.1101/2025.11.04.686508
